# Experimental data as given in the supplement of paper PMC11438910.
# The list shows a part of the results. The signal is at background level for most entries.
# B1: 4-173.4 (protein)
# chain 1: QLQLQESGPGLVKPSETLSLTCAVSGGSISSHYWSWIRQPPGKGLEWIGRFSAGGGSTDYNPSLKSRVTISTDTSKNQFTLNLNSVTAADTAVYYCTRGSYTSDYWGQGVLVTVSS
# chain 2: QAALTQSPSVSGSPGQSVTISCTGTSSDIGGYIRVSWYQQHPGKAPKLMIYEVSKRPSGVSDRFSGSKSGNTASLTISGLQAEDEADYYCFSYARGDTVLLGGGTRLTVL
# Tests used:
# Experiment in all cases: fluorescence intensity of antibody binding to polysaccharide-coupled beads; higher = stronger binding
# [1] = target: pneumococcal polysaccharide Pn44
# [2] = target: pneumococcal polysaccharide Pn45
# [3] = target: pneumococcal polysaccharide Pn46
# [4] = target: pneumococcal polysaccharide Pn47A
# [5] = target: pneumococcal polysaccharide Pn47F
# [6] = target: pneumococcal polysaccharide Pn48
# [7] = target: pneumococcal polysaccharide Pn5
# [8] = target: pneumococcal polysaccharide Pn6A
# [9] = target: pneumococcal polysaccharide Pn6B
# [10] = target: pneumococcal polysaccharide Pn6C
# [11] = target: pneumococcal polysaccharide Pn6D
# [12] = target: pneumococcal polysaccharide Pn7A
# [13] = target: pneumococcal polysaccharide Pn7B
# [14] = target: pneumococcal polysaccharide Pn7C
# [15] = target: pneumococcal polysaccharide Pn7F
# [16] = target: pneumococcal polysaccharide Pn8
# [17] = target: pneumococcal polysaccharide Pn9A
# [18] = target: pneumococcal polysaccharide Pn9L
# [19] = target: pneumococcal polysaccharide Pn9N
# [20] = target: pneumococcal polysaccharide Pn9V
# [21] = antibody concentration 0.1 ng/mL
# [22] = antibody concentration 0.534724 ng/mL
# [23] = antibody concentration 2.8593 ng/mL
# [24] = antibody concentration 15.2894 ng/mL
# [25] = antibody concentration 81.7561 ng/mL
# [26] = antibody concentration 437.17 ng/mL
# [27] = antibody concentration 2337.65 ng/mL
# [28] = antibody concentration 12500 ng/mL
binder,measurement,setting,value
B1,fluorescence intensity,[1]; [21],24.5 MFI
same,fluorescence intensity,[1]; [22],25.5 MFI
same,fluorescence intensity,[1]; [23],26.8 MFI
same,fluorescence intensity,[1]; [24],25.8 MFI
same,fluorescence intensity,[1]; [25],25.8 MFI
same,fluorescence intensity,[1]; [26],28.5 MFI
same,fluorescence intensity,[1]; [27],28 MFI
same,fluorescence intensity,[1]; [28],35.5 MFI
same,fluorescence intensity,[2]; [21],10.5 MFI
same,fluorescence intensity,[2]; [22],11.5 MFI
same,fluorescence intensity,[2]; [23],11 MFI
same,fluorescence intensity,[2]; [24],10.5 MFI
same,fluorescence intensity,[2]; [25],11.5 MFI
same,fluorescence intensity,[2]; [26],11.5 MFI
same,fluorescence intensity,[2]; [27],12.5 MFI
same,fluorescence intensity,[2]; [28],17 MFI
same,fluorescence intensity,[3]; [21],22.5 MFI
same,fluorescence intensity,[3]; [22],24.2 MFI
same,fluorescence intensity,[3]; [23],24.5 MFI
same,fluorescence intensity,[3]; [24],23.5 MFI
same,fluorescence intensity,[3]; [25],24.5 MFI
same,fluorescence intensity,[3]; [26],26.5 MFI
same,fluorescence intensity,[3]; [27],26.5 MFI
same,fluorescence intensity,[3]; [28],47.5 MFI
same,fluorescence intensity,[4]; [21],15.2 MFI
same,fluorescence intensity,[4]; [22],14.5 MFI
same,fluorescence intensity,[4]; [23],16.5 MFI
same,fluorescence intensity,[4]; [24],16 MFI
same,fluorescence intensity,[4]; [25],15 MFI
same,fluorescence intensity,[4]; [26],15.5 MFI
same,fluorescence intensity,[4]; [27],17 MFI
same,fluorescence intensity,[4]; [28],22.8 MFI
same,fluorescence intensity,[5]; [21],12 MFI
same,fluorescence intensity,[5]; [22],12.5 MFI
same,fluorescence intensity,[5]; [23],12.5 MFI
same,fluorescence intensity,[5]; [24],11 MFI
same,fluorescence intensity,[5]; [25],13 MFI
same,fluorescence intensity,[5]; [26],12.8 MFI
same,fluorescence intensity,[5]; [27],13.5 MFI
same,fluorescence intensity,[5]; [28],39.5 MFI
same,fluorescence intensity,[6]; [21],22 MFI
same,fluorescence intensity,[6]; [22],20.5 MFI
same,fluorescence intensity,[6]; [23],21 MFI
same,fluorescence intensity,[6]; [24],21 MFI
same,fluorescence intensity,[6]; [25],20.5 MFI
same,fluorescence intensity,[6]; [26],26 MFI
same,fluorescence intensity,[6]; [27],28.5 MFI
same,fluorescence intensity,[6]; [28],45.8 MFI
same,fluorescence intensity,[7]; [21],8.5 MFI
same,fluorescence intensity,[7]; [22],9 MFI
same,fluorescence intensity,[7]; [23],10 MFI
same,fluorescence intensity,[7]; [24],9.75 MFI
same,fluorescence intensity,[7]; [25],8.5 MFI
same,fluorescence intensity,[7]; [26],10.5 MFI
same,fluorescence intensity,[7]; [27],12.5 MFI
same,fluorescence intensity,[7]; [28],38.8 MFI
same,fluorescence intensity,[8]; [21],21.5 MFI
same,fluorescence intensity,[8]; [22],21.5 MFI
same,fluorescence intensity,[8]; [23],19.5 MFI
same,fluorescence intensity,[8]; [24],21.5 MFI
same,fluorescence intensity,[8]; [25],22.5 MFI
same,fluorescence intensity,[8]; [26],25.5 MFI
same,fluorescence intensity,[8]; [27],25.2 MFI
same,fluorescence intensity,[8]; [28],37 MFI
same,fluorescence intensity,[9]; [21],19 MFI
same,fluorescence intensity,[9]; [22],18.5 MFI
same,fluorescence intensity,[9]; [23],20 MFI
same,fluorescence intensity,[9]; [24],20 MFI
same,fluorescence intensity,[9]; [25],17.5 MFI
same,fluorescence intensity,[9]; [26],21.5 MFI
same,fluorescence intensity,[9]; [27],25 MFI
same,fluorescence intensity,[9]; [28],34.5 MFI
same,fluorescence intensity,[10]; [21],24 MFI
same,fluorescence intensity,[10]; [22],47.2 MFI
same,fluorescence intensity,[10]; [23],53.5 MFI
same,fluorescence intensity,[10]; [24],59.8 MFI
same,fluorescence intensity,[10]; [25],60.5 MFI
same,fluorescence intensity,[10]; [26],67 MFI
same,fluorescence intensity,[10]; [27],76.8 MFI
same,fluorescence intensity,[10]; [28],68.5 MFI
same,fluorescence intensity,[11]; [21],17 MFI
same,fluorescence intensity,[11]; [22],17 MFI
same,fluorescence intensity,[11]; [23],17.8 MFI
same,fluorescence intensity,[11]; [24],16.8 MFI
same,fluorescence intensity,[11]; [25],18.5 MFI
same,fluorescence intensity,[11]; [26],16.5 MFI
same,fluorescence intensity,[11]; [27],19.8 MFI
same,fluorescence intensity,[11]; [28],23 MFI
same,fluorescence intensity,[12]; [21],19.2 MFI
same,fluorescence intensity,[12]; [22],19.8 MFI
same,fluorescence intensity,[12]; [23],19.2 MFI
same,fluorescence intensity,[12]; [24],21 MFI
same,fluorescence intensity,[12]; [25],18 MFI
same,fluorescence intensity,[12]; [26],21.2 MFI
same,fluorescence intensity,[12]; [27],26.5 MFI
same,fluorescence intensity,[12]; [28],102 MFI
same,fluorescence intensity,[13]; [21],16 MFI
same,fluorescence intensity,[13]; [22],16.5 MFI
same,fluorescence intensity,[13]; [23],15.5 MFI
same,fluorescence intensity,[13]; [24],16.5 MFI
same,fluorescence intensity,[13]; [25],14.5 MFI
same,fluorescence intensity,[13]; [26],16.8 MFI
same,fluorescence intensity,[13]; [27],17.2 MFI
same,fluorescence intensity,[13]; [28],30.8 MFI
same,fluorescence intensity,[14]; [21],15 MFI
same,fluorescence intensity,[14]; [22],16.5 MFI
same,fluorescence intensity,[14]; [23],15.8 MFI
same,fluorescence intensity,[14]; [24],16 MFI
same,fluorescence intensity,[14]; [25],17 MFI
same,fluorescence intensity,[14]; [26],17.8 MFI
same,fluorescence intensity,[14]; [27],17.5 MFI
same,fluorescence intensity,[14]; [28],25.5 MFI
same,fluorescence intensity,[15]; [21],16 MFI
same,fluorescence intensity,[15]; [22],13.5 MFI
same,fluorescence intensity,[15]; [23],15 MFI
same,fluorescence intensity,[15]; [24],14.5 MFI
same,fluorescence intensity,[15]; [25],15.5 MFI
same,fluorescence intensity,[15]; [26],18 MFI
same,fluorescence intensity,[15]; [27],22.8 MFI
same,fluorescence intensity,[15]; [28],87.8 MFI
same,fluorescence intensity,[16]; [21],22 MFI
same,fluorescence intensity,[16]; [22],21.5 MFI
same,fluorescence intensity,[16]; [23],22.8 MFI
same,fluorescence intensity,[16]; [24],22.8 MFI
same,fluorescence intensity,[16]; [25],22.5 MFI
same,fluorescence intensity,[16]; [26],27.8 MFI
same,fluorescence intensity,[16]; [27],29 MFI
same,fluorescence intensity,[16]; [28],44.8 MFI
same,fluorescence intensity,[17]; [21],20.5 MFI
same,fluorescence intensity,[17]; [22],19.5 MFI
same,fluorescence intensity,[17]; [23],18.8 MFI
same,fluorescence intensity,[17]; [24],18.5 MFI
same,fluorescence intensity,[17]; [25],18 MFI
same,fluorescence intensity,[17]; [26],19.5 MFI
same,fluorescence intensity,[17]; [27],20.5 MFI
same,fluorescence intensity,[17]; [28],35.2 MFI
same,fluorescence intensity,[18]; [21],19 MFI
same,fluorescence intensity,[18]; [22],17 MFI
same,fluorescence intensity,[18]; [23],17 MFI
same,fluorescence intensity,[18]; [24],16 MFI
same,fluorescence intensity,[18]; [25],18 MFI
same,fluorescence intensity,[18]; [26],16.5 MFI
same,fluorescence intensity,[18]; [27],18.5 MFI
same,fluorescence intensity,[18]; [28],26.5 MFI
same,fluorescence intensity,[19]; [21],16.5 MFI
same,fluorescence intensity,[19]; [22],16.5 MFI
same,fluorescence intensity,[19]; [23],16 MFI
same,fluorescence intensity,[19]; [24],16 MFI
same,fluorescence intensity,[19]; [25],16 MFI
same,fluorescence intensity,[19]; [26],16.5 MFI
same,fluorescence intensity,[19]; [27],17 MFI
same,fluorescence intensity,[19]; [28],27.2 MFI
same,fluorescence intensity,[20]; [21],14 MFI
same,fluorescence intensity,[20]; [22],14 MFI
same,fluorescence intensity,[20]; [23],15.5 MFI
same,fluorescence intensity,[20]; [24],14 MFI
same,fluorescence intensity,[20]; [25],14 MFI
same,fluorescence intensity,[20]; [26],16.5 MFI
same,fluorescence intensity,[20]; [27],16.2 MFI
same,fluorescence intensity,[20]; [28],24 MFI

# Reformatted bar-delimited: entries from further up.
binder | measurement | setting | value
B1 | fluorescence intensity | [15]; [28] | 87.8 MFI
same | fluorescence intensity | [16]; [21] | 22 MFI

# A run of entries taken from the entries so far, for reference:
binder,measurement,setting,value
B1,fluorescence intensity,[5]; [21],12 MFI
same,fluorescence intensity,[5]; [22],12.5 MFI
same,fluorescence intensity,[5]; [23],12.5 MFI
same,fluorescence intensity,[5]; [24],11 MFI

# In a second layout: entries from further up
binder	measurement	setting	value
B1	fluorescence intensity	[10]; [21]	24 MFI
same	fluorescence intensity	[10]; [22]	47.2 MFI
same	fluorescence intensity	[10]; [23]	53.5 MFI
